# Assay results from the supplement of paper PMC4604168 (melanoma cell lines).
# The other results are listed elsewhere or left out. Many values rest on one well or one pass, so single values are uncertain.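 Cells were imaged in 1,536-well plates, and nuclei stained with an antibody against cleaved PARP were counted against all DNA-stained nuclei to give the apoptosis fraction. Screening doses were chosen to leave most cells alive, and resting and induced cleaved-PARP levels differ strongly between cell lines.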
# Tests used:
# Test in all cases: cleaved PARP positive nuclei fraction relative to DMSO control; melanoma cells; higher = more apoptosis
# Conditions in all cases: library dose: low library concentration; 72 h
# MZ2-MEL = test system: MZ2-MEL
# MeWo = test system: MeWo
# RPMI7951 = test system: RPMI7951
# RVH-421 = test system: RVH-421
# SkMel28 = test system: SkMel28
# SkMel2 = test system: SkMel2
# SkMel30 = test system: SkMel30
# SkMel5 = test system: SkMel5
# UACC257 = test system: UACC257
# UACC62 = test system: UACC62
# WM115 = test system: WM115
# WM1716 = test system: WM1716
# WM1745 = test system: WM1745
# WM3526 = test system: WM3526
# WM3619 = test system: WM3619
# WM451Lu = test system: WM451Lu
SMILES,cleaved PARP positive nuclei fraction (MZ2-MEL) [%],cleaved PARP positive nuclei fraction (MeWo) [%],cleaved PARP positive nuclei fraction (RPMI7951) [%],cleaved PARP positive nuclei fraction (RVH-421) [%],cleaved PARP positive nuclei fraction (SkMel28) [%],cleaved PARP positive nuclei fraction (SkMel2) [%],cleaved PARP positive nuclei fraction (SkMel30) [%],cleaved PARP positive nuclei fraction (SkMel5) [%],cleaved PARP positive nuclei fraction (UACC257) [%],cleaved PARP positive nuclei fraction (UACC62) [%],cleaved PARP positive nuclei fraction (WM115) [%],cleaved PARP positive nuclei fraction (WM1716) [%],cleaved PARP positive nuclei fraction (WM1745) [%],cleaved PARP positive nuclei fraction (WM3526) [%],cleaved PARP positive nuclei fraction (WM3619) [%],cleaved PARP positive nuclei fraction (WM451Lu) [%]
"O=C(/C=C/c1cccnc1)NCCCCC1CCN(C(=O)c2ccccc2)CC1 + COC(=O)c1sccc1S(=O)(=O)Nc1ccc(Nc2ccccc2)cc1OC [GSK0660] (first compound 0.01 µM, partner dose 1 µM)",1120,65.9,65.8,78.4,134,1080,50.4,88,27.7,94.5,302,54.4,80.8,56.8,111,71.1
"Cc1cc(Nc2cc(N3CCN(C)CC3)nc(Sc3ccc(NC(=O)C4CC4)cc3)n2)n[nH]1 [Tozasertib] + NC(=O)Nc1cc(-c2cccc(F)c2)sc1C(=O)N[C@H]1CCCNC1 [AZD7762] (first compound 0.006 µM, partner dose 0.02 µM)",53.9,142,63.8,38,57.7,207,133,130,109,59,184,315,101,83.8,206,208
"O=C(/C=C/c1cccnc1)NCCCCC1CCN(C(=O)c2ccccc2)CC1 + Cn1cc(/C=C2\C(=O)Nc3cccnc32)c2ccccc21 [GW441756] (first compound 0.01 µM, partner dose 0.4 µM)",734,55.2,45.1,96.8,116,497,34.2,179,98.5,113,124,86.6,99.9,143,101,33.3
"O=c1[nH]nc(Sc2ncc([N+](=O)[O-])s2)n1-c1ccc2c(c1)OCCO2 + COC(=O)c1sccc1S(=O)(=O)Nc1ccc(Nc2ccccc2)cc1OC [GSK0660] (first compound 0.2 µM, partner dose 1 µM)",66.1,66.2,106,189,49.1,70.5,15.8,81.4,80.4,67.8,181,103,79.6,38.8,134,104
"Cc1ccc(Nc2nccc(N(C)c3ccc4c(C)n(C)nc4c3)n2)cc1S(N)(=O)=O [Pazopanib] + COc1ccc2c(c1)CCC1C2CCC2(C)C(NCCCCCCN3C(=O)C=CC3=O)CCC12 [U73122] (first compound 0.4 µM, partner dose 0.4 µM)",222,116,239,183,90.6,35.2,30.3,256,144,155,153,143,112,80.7,117,37.2
"CC[C@]1(O)C[C@H]2CN(CCc3c([nH]c4ccccc34)[C@@](C(=O)OC)(c3cc4c(cc3OC)N(C=O)[C@H]3[C@@](O)(C(=O)OC)[C@H](OC(C)=O)[C@]5(CC)C=CCN6CC[C@]43[C@@H]65)C2)C1 [vincristine] + O=C(CCCCCCC(=O)Nc1ccccc1)NO [vorinostat] (first compound 0.0001 µM, partner dose 0.08 µM)",158,50,116,40.6,105,98,80.7,70.9,216,83.4,234,180,84.9,59,140,106
"O=C(Nc1cc(C(F)(F)F)cc(C(F)(F)F)c1)c1cc(Cl)ccc1O + C[C@@H]1CCN(C(=O)CC#N)C[C@@H]1N(C)c1ncnc2[nH]ccc12 [CP690550] (first compound 0.016 µM, partner dose 1 µM)",73.6,107,99.1,22.1,99.4,92.8,55.2,48.5,98.5,134,90.3,75.7,97.6,100,107,98.8
"CCCCCCCCCCCCCCCCCCOP(=O)([O-])OC1CC[N+](C)(C)CC1 [Perifosine] + NCC(=O)Nc1ccc(-n2nc(C(F)(F)F)cc2-c2ccc3c(ccc4ccccc43)c2)cc1 [OSU03012] (first compound 0.4 µM, partner dose 1 µM)",252,145,135,201,74,163,605,79.3,46.6,52,79,132,76.2,372,83.2,875
"Cc1ccc(Nc2nccc(N(C)c3ccc4c(C)n(C)nc4c3)n2)cc1S(N)(=O)=O [Pazopanib] + O=S(=O)(c1ccccc1)N(CC(F)(F)F)c1ccc(C(O)(C(F)(F)F)C(F)(F)F)cc1 [T0901317] (first compound 0.4 µM, partner dose 1.4 µM)",31.3,87.4,99.9,111,198,102,46.8,223,121,209,41.5,293,104,145,107,132
